PubChem BioAssay AID1259405 | NCATS – 2018
The deposit covers about 50,000 reagents; shown is an unselected part. Over the whole deposit, about 4,000 (8%) got an active call. 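Mouse siRNA library applied to hamster cells; one well for each siRNA.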 The numbers tell different reagents against one gene apart.

Screen: 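Knock-downs that lift recombinant protein yield in hamster ovary cells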 (primary screen)
System: Chinese hamster CHO-K1 ovary cells with stable secreted eGFP expression
Reagent: single siRNA against mouse genes, 0.8 pmol siRNA per well (2 µl of 400 nM stock)
Duration: 3 days
Read-out: 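Per-well intracellular GFP measured by laser scanning cytometry, plus viability from ATP luminescence, each relative to plate median of non-targeting control wells, in %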
Scale: GFP, % of control: higher = more GFP per well, higher productivity; viability (ATP), % of control: higher = more viable cells (more ATP)
Hit rule: 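Called active when intracellular GFP, relative to negative control, is at or above 120%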

no.	gene	siRNA no.	GFP, % of control	viability (ATP), % of control	activity call
1	D16Ertd472e	1	64.7	84.9	inactive
2	D16Ertd472e	2	103	80.6	inactive
3	D16Ertd472e	3	98.5	64.1	inactive
4	Ifitm7	1	69.3	62.3	inactive
5	Ifitm7	2	24.7	36.4	inactive
6	Ifitm7	3	173	54.7	active
7	Cdnf	1	89.6	79.1	inactive
8	Cdnf	2	62.6	54.7	inactive
9	Cdnf	3	89	112	inactive
10	Btnl2	1	52.6	64.5	inactive
11	Btnl2	2	63.9	76.5	inactive
12	Btnl2	3	109	76	inactive
13	Olig3	1	59.5	108	inactive
14	Olig3	2	64	91.9	inactive
15	Olig3	3	69.5	94.5	inactive
16	Cav1	1	35.9	26.7	inactive
17	Cav1	2	87.4	88	inactive
18	Surf6	1	121	96.5	active
19	Surf6	2	59.1	78.3	inactive
20	Or6c216	1	75.9	87	inactive
21	Or6c216	2	72.4	83.2	inactive
22	Or6c216	3	51.9	63.7	inactive
23	Lama4	1	90.1	110	inactive
24	Lama4	2	82	105	inactive
25	Usp38	1	136	74.8	active
26	Usp38	2	49.6	43.3	inactive
27	Usp38	3	45.9	65.2	inactive
28	Zfp369	1	52.6	70	inactive
29	Zfp369	2	67.4	77.3	inactive
30	Zfp369	3	56.2	53.3	inactive
31	Rpl10	1	76.5	55	inactive
32	Rpl10	2	39.6	24.5	inactive
33	Rpl10	3	26.7	21.5	inactive
34	Spata18	1	69.6	65.2	inactive
35	Spata18	2	143	93.2	active
36	Spata18	3	78.2	61.5	inactive
37	Ubqln2	1	68.4	65	inactive
38	Ubqln2	2	150	59.9	active
39	Ubqln2	3	87.3	92.1	inactive
40	Or8k32	1	61.7	68.8	inactive
41	Or8k32	2	84.3	67.9	inactive
42	Or8k32	3	89.9	123	inactive
43	Copz2	1	82	61.1	inactive
44	Copz2	2	97.3	74.8	inactive
45	Copz2	3	65.9	66.8	inactive
46	Or1j11	1	134	70.4	active
47	Or1j11	2	139	84	active
48	Or1j11	3	36.5	86.7	inactive
49	Myf5	1	103	99.4	inactive
50	Myf5	2	59.9	59.6	inactive
51	Myf5	3	98	102	inactive
52	Zfp108	1	61.2	76.3	inactive
53	Zfp108	2	63.6	75.4	inactive
54	Zfp108	3	150	72.1	active
55	Zfp108	4	96.7	99.5	inactive
56	Zfp108	5	87.4	84.2	inactive
57	Zfp108	6	92.8	100	inactive
58	Cdk3	1	45.9	15	inactive
59	Cdk3	2	94	90.3	inactive
60	Cdk3	3	69.7	57.1	inactive
61	Gnl3l	1	68.7	52.5	inactive
62	Gnl3l	2	60.2	49.8	inactive
63	Gnl3l	3	61.9	64	inactive
64	Bpifb3	1	67.7	64.7	inactive
65	Bpifb3	2	62.1	49.8	inactive
66	Bpifb3	3	50.5	63.7	inactive
67	Shc4	1	63.8	51.8	inactive
68	Shc4	2	58.1	50.3	inactive
69	Shc4	3	108	67.8	inactive
70	Tpd52l1	1	66.4	76.2	inactive
71	Tpd52l1	2	92.1	91.4	inactive
72	Tpd52l1	3	132	119	active
73	Cutal	1	54.1	46	inactive
74	Cutal	2	119	75.6	inactive
75	Cutal	3	81.8	69.3	inactive
76	Zfy2	1	54.3	71	inactive
77	Zfy2	2	63.4	81.4	inactive
78	Zfy2	3	57.6	79.9	inactive
79	H2-Q10	1	13.2	6.43	inactive
80	H2-Q10	2	74.8	73.5	inactive
81	H2-Q10	3	129	67.2	active
82	Gjb3	1	132	53.1	active
83	Gjb3	2	68.5	57.5	inactive
84	Gjb3	3	67.3	57.2	inactive

As entered above:
Under “activity call”, H2-Q10 #3 reads active
Result of Shc4 #3 under “viability (ATP), % of control”: 67.8
Under “GFP, % of control”, Cdk3 #2 reads 94
Under “GFP, % of control”, H2-Q10 #1 is entered as 13.2
Tpd52l1 #3, viability (ATP), % of control: 119
For “viability (ATP), % of control”, Zfp369 #1 shows 70
